Assay results reported in paper PMC11501035.
No constants are given. Whether binding was seen depends on the method and setting. Some binding calls cover weakened binding; strength is not graded here.

Chains of the proteins cited; added tags and fusions are not shown. Lines headed by an entry give the natural chain unless they say otherwise; changes in a name come on top. A line that says so, or that is headed by a name, gives the form on record, which may keep a tag or linker.
sarcoplasmic/endoplasmic reticulum (SER) Ca2+ ATPase 2a (O55143-2, form named): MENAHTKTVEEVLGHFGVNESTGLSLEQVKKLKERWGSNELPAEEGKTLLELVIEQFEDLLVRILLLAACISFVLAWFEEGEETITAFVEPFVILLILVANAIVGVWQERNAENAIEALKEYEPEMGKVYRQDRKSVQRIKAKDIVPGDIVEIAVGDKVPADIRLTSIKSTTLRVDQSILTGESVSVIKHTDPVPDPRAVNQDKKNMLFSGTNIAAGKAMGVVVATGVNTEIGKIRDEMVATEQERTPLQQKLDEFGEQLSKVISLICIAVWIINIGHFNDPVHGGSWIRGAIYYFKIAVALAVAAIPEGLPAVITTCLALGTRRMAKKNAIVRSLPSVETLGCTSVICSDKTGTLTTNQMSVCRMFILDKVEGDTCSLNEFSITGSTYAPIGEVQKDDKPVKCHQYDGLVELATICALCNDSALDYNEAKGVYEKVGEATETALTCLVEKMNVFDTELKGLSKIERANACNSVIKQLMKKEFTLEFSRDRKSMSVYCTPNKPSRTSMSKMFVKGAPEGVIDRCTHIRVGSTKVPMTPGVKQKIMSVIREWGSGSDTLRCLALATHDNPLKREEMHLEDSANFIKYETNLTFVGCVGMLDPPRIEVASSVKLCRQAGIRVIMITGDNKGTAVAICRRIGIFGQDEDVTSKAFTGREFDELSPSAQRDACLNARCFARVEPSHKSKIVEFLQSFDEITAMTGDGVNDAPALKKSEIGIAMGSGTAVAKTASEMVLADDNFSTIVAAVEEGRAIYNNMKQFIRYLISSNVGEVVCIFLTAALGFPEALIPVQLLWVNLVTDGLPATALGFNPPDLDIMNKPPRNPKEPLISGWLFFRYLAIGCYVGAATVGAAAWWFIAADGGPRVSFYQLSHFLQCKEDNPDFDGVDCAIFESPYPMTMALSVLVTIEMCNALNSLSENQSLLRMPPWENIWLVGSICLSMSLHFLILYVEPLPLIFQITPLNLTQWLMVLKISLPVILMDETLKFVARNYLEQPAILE

Biological target: T1, Phospholamban (mouse (endogenous in left-ventricular tissue)) (UniProt P61014)
T1 sequence: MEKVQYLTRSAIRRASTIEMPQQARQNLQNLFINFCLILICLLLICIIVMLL
Test: complexome profiling (SEC fractionation with DIA-MS of each fraction); Cohort #1: membrane fractions of left-ventricular tissue of one 28wk-old WT and one R14Δ/+ mouse, solubilised in C12E8 (0.5 mg/mg protein); Bio-SEC-5 1000 Å column, on ice, 5 mM Tris-HCl, 1 mM EDTA, 150 mM KCl, 0.005 mg/ml C12E8, pH 7; 89 fractions; co-elution of proteins in high-MW fractions

sarcoplasmic/endoplasmic reticulum (SER) Ca2+ ATPase 2a (from UniProt O55143-2 1-998)
binding: binds
